The source of these data is paper PMC9028331.

Protein sequences, listed by entry. Tags and fused reporters are not part of them.
UniProt P19073: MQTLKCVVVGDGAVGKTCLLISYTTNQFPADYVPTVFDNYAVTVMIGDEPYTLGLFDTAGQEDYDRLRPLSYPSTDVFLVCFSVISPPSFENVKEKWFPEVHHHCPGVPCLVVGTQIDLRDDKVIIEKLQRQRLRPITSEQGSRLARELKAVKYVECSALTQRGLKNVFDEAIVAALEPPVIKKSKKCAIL

These are yes or no findings as the source states them, for the method shown. Some results given as binding are weak or reduced against the parent protein; the word gives no strength.

The target of this assay is Cdc42p (S. cerevisiae) (UniProt P19073). Briefly: two-hybrid; yeast two-hybrid, activation of the reporter gene; which partner was bait is not stated.

B1: full-length Cla4p-S186E (protein, UniProt P48562 1-842)
chain: MSLSAAANKISDNDFQNIGPAPRPPSSNSQGRTCYNQTQPITKLMSQLDLTSASHLGTSTSKKKSGWVSYKDDGILSFIWQKRYLMLHDSYVALYKNDKQNDDAILKIPLTSIISVSRTQLKQYCFELVRCSDRNSVSSGSSSSLNVSSDSNSKKSIYIATKTESDLHSWLDAIFAKCPLLSGVSEPTNFTHKVHVGFDPETGSFVGMPTNWEKLLKHSRITGEDWNNNSAAVIQVLQFYQEYNGAGNPTNTLDKPQSGETSSSQKSLPNSYNDNKLRNNSVNSKSSSGVSSSMVSQRKTSQPPNTKSPVSLGSGSLPPINTKLPTSQSNIPRHLQNVPNQQYPKMRNGHSPTNGQFPRGPMHPNNSQRSLQQQQQQQQQQKQQHQQYPYHHQGPSPSPSPSPSPLNPYRPHHNMINPYSKQPQSPLSSQSTQNQAIPRYAQNSSPTAAHFQPQRTAPKPPISAPRAPYPSNQNATSNTHVQPVAPKNDQSTPQTMRQAPKRPDADVAQPGGVAKPKKPARPTMSTAEIMSKLKKVTVNADPSQCFKVIEKAGQGASGSVYLAERTHIPTESNMIELINNDIDEPHVGDKVAIKQMVLSKQPRKELIVNEILVMKDSRHKNIVNFLEAYLRTDDDLWVVMEFMEGGSLTDIIENSPTNDNSHSPLTEPQIAYIVRETCQGLKFLHDKHIIHRDIKSDNVLLDTRARVKITDFGFCARLTDKRSKRATMVGTPYWMAPEVVKQREYDEKIDVWSLGIMTIEMLEGEPPYLNEDPLKALYLIATNGTPKLKHPESLSLEIKRFLSVCLCVDVRYRASTEELLHHGFFNMACDPKDLTSLLEWKE
Regarding B1, the binding result is given as “binds”.

B2: full-length Cla4p (protein, UniProt P48562 1-842)
chain: MSLSAAANKISDNDFQNIGPAPRPPSSNSQGRTCYNQTQPITKLMSQLDLTSASHLGTSTSKKKSGWVSYKDDGILSFIWQKRYLMLHDSYVALYKNDKQNDDAILKIPLTSIISVSRTQLKQYCFELVRCSDRNSVSSGSSSSLNVSSDSNSKKSIYIATKTESDLHSWLDAIFAKCPLLSGVSSPTNFTHKVHVGFDPETGSFVGMPTNWEKLLKHSRITGEDWNNNSAAVIQVLQFYQEYNGAGNPTNTLDKPQSGETSSSQKSLPNSYNDNKLRNNSVNSKSSSGVSSSMVSQRKTSQPPNTKSPVSLGSGSLPPINTKLPTSQSNIPRHLQNVPNQQYPKMRNGHSPTNGQFPRGPMHPNNSQRSLQQQQQQQQQQKQQHQQYPYHHQGPSPSPSPSPSPLNPYRPHHNMINPYSKQPQSPLSSQSTQNQAIPRYAQNSSPTAAHFQPQRTAPKPPISAPRAPYPSNQNATSNTHVQPVAPKNDQSTPQTMRQAPKRPDADVAQPGGVAKPKKPARPTMSTAEIMSKLKKVTVNADPSQCFKVIEKAGQGASGSVYLAERTHIPTESNMIELINNDIDEPHVGDKVAIKQMVLSKQPRKELIVNEILVMKDSRHKNIVNFLEAYLRTDDDLWVVMEFMEGGSLTDIIENSPTNDNSHSPLTEPQIAYIVRETCQGLKFLHDKHIIHRDIKSDNVLLDTRARVKITDFGFCARLTDKRSKRATMVGTPYWMAPEVVKQREYDEKIDVWSLGIMTIEMLEGEPPYLNEDPLKALYLIATNGTPKLKHPESLSLEIKRFLSVCLCVDVRYRASTEELLHHGFFNMACDPKDLTSLLEWKE
Turning to B2, the binding entry was “binds”.
